# Source: PubChem BioAssay (NCATS)
# Where “and” joins values, the source holds several entries; their conditions need not be identical. Equal values may be shown once. The list shows a part of the results. The main result of the screen is listed elsewhere. These columns were measured beside it and carry no call. For some of these results: Compounds called inactive in the main read-out are mostly missing here. Potencies come from curve fits of mixed quality, noted in brackets.
# Legend:
# [1] = Validation of Assay for Modulators of Lamin A Splicing (AID 1459); settings: Lamin A splicing dual RFP/GFP fluorescence reporter, ratio
# Summary of the method: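 S3 HeLa cells stably expressing a lamin A-EGFP splicing minigene and DsRed2 were seeded at 600 cells/well in Opti-MEM with 2% FBS, pin-dosed, and incubated 48 hrs at 37 °C, 5% CO2. Laser-scanning cytometry (488 nm) gave GFP/RFP total intensity ratio.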
# [2] = qHTS Assay for Lipid Storage Modulators (AID 1519); settings: Drosophila S3 cells, BODIPY lipid droplet/cell ratio, laser cytometry, cells loaded with oleic acid
# Summary of the method: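 Cells seeded at 5,000 per well were treated with compounds over a concentration series and loaded with oleic acid (400 uM, as added). Lipid droplet fluorescence (488 nm excitation, 500-530 nm channel) was read by laser-scanning cytometry and normalized to 20 uM Triacsin C.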
# [3] = Nrf2 qHTS screen for inhibitors: Validation (AID 493153); settings: A549 ARE-Fluc reporter, 18-24 h; AC50: CellTiter-Fluor fluorescence read, measured here: cytotoxicity CellTiter-Fluor AC50; viability change: measured here: cytotoxicity max response
# Summary of the method: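 A549 cells carrying ARE-firefly luciferase reporter, 5000 cells/well in 5% FBS OPTI-MEM, treated with compound over a concentration series for 18-24 h at 37 C. Luciferase luminescence gave Nrf2 activity; CellTiter-Fluor fluorescence gave viability.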
# [4] = qHTS Assay for Modulators of Human Peripheral Myelin Protein 22 (PMP22) Expression/Activity (AID 1967); settings: Cell-based PMP22 reporter, dual-color luciferase ratio
# Summary of the method: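 MSC80 mouse Schwann cells stably carrying Pmp22 promoter–green click beetle luciferase plus EF-alpha–red luciferase control were dosed for 24h at 37 °C. Dual-colour luminescence was filter-overlap corrected; %Activity came from green/red ratio versus untreated cells.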
# [5] = qHTS Validation Assay to Find Inhibitors of Chronic Active B-Cell Receptor Signaling (AID 485345); settings: ABC-DLBCL cells, chronic BCR signaling reporter
# Summary of the method: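 TMD8 ABC-DLBCL cells stably carrying doxycycline-inducible IkappaBalpha–green luciferase fusion plus unfused red luciferase; compounds 46 uM to 3 nM, 4 h at 37C with doxycycline. Corrected green/red luminescence ratio normalized to 10 uM MG-132 and basal cell wells; curves fitted.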
# [6] = qHTS drug screen for cell cycle checkpoint inhibitors in PARPi-resistant BRCA-mutant ovarian cancer cell lines. (AID 1963452); settings: PEO1/OlaR viability, CellTiter-Glo luminescence, 96 h
# Summary of the method: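 PEO1, PEO4 and PEO1/OlaR ovarian cancer cells, 600 per well, exposed 96 h at 37C to a dilution series. Viability read by CellTiter-Glo luminescence, normalized to DMSO and empty wells; activity summarized as Z-AUC.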
# [7] = qHTS for identification of novel therapeutic agents for treatment of microphthalmiaassociated transcription factor (MiT) renal cell carcinoma (RCC) (AID 1963991); settings: CellTiter-Glo, 48 h; for z-score: stronger effect = lower value
# Summary of the method: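 Curves over 11 concentrations were fitted to CellTiter-Glo luminescence, scaled between empty wells (0%) and DMSO (100%) viability. Cells were UOK109, UOK124 and UOK145 TFE3-fusion RCC lines at 500/well, exposed 48 hours at 37 C.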
# [8] = qHTS Assay for Inhibitors of PDE-IV (AID 607); settings: HEK293 ACTOne CNG channel cells, membrane potential fluorescence; measured here: parental cell counter-screen
# Summary of the method: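 Cell-based read-out of cAMP via a modified cyclic nucleotide-gated channel and membrane potential dye (535/590 nm) in HEK293 cells expressing PDE4 endogenously. Compounds tested up to 22.9 uM final; 100 uM RO 20-1724 reference.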
# [9] = measured here: cell count channel max response
# [10] = measured here: cell number channel AC50
# [11] = measured here: lipid (BODIPY) channel AC50
# [12] = measured here: lipid channel max response
# [13] = measured here: green reporter channel AC50, mouse Pmp22 promoter in mouse Schwann cells
# [14] = measured here: CBG/CBR ratio read-out
# [15] = measured here: CBR control luciferase (viability counter)
# [16] = measured here: red reporter channel AC50, EF-alpha promoter control reporter in MSC80 mouse Schwann cells
# [17] = TFE3-RCC UOK109 viability, measured here: UOK109 Z-AUC
# [18] = TFE3-RCC viability, measured here: UOK124 Z-AUC
# [19] = TFE3-RCC viability, measured here: UOK145 Z-AUC
smiles,measurement,setting,value
Cc1cccc(C(=O)NCN2CCN(c3ccccc3C#N)CC2)c1,AC50,[1]; measured here: GFP channel,"35.5 µM [falling, single point]"
same,AC50,[1]; measured here: RFP channel,"35.5 µM [falling, single point]"
same,max response,[2]; [9],55.3%
same,AC50,[2]; [10],"14.1 µM [rising, partial curve, poor fit]"
same,AC50,[2]; [11],"14.1 µM [rising, partial curve, poor fit]"
same,max response,[2]; [12],70.9%
same,viability change,[3],-0.858%
Cn1cc(C2=C(c3ccc(Cl)cc3Cl)C(=O)NC2=O)c2ccccc21,AC50,[1]; measured here: GFP channel,"14.1 µM [rising, partial curve]"
same,AC50,[1]; measured here: RFP channel,"14.1 µM [rising, partial curve]"
same,max response,[2]; [9],69.4% and 36.7%
same,AC50,[2]; [10],"2.82 µM [rising, full curve]"
same,AC50,[2]; [11],"0.708 µM [rising, full curve, poor fit]"
same,max response,[2]; [12],30.4% and 34.7%
same,AC50,[4]; [13],"42.6 µM [falling, partial curve]"
same,AC50,[5]; [14],"13 µM [falling, partial curve, poor fit]"
same,AC50,[5]; [15],"4.61 µM [falling, single point]"
CC[C@@H](C)[C@H]1O[C@]2(CC[C@@H]1C)C[C@@H]1C[C@@H](C/C=C(\C)[C@@H](O[C@H]3C[C@H](OC)[C@@H](O[C@H]4C[C@H](OC)[C@@H](O)[C@H](C)O4)[C@H](C)O3)[C@@H](C)/C=C/C=C3\CO[C@@H]4[C@H](O)C(C)=C[C@@H](C(=O)O1)[C@]34O)O2,AC50,[1]; measured here: GFP channel,"11.2 µM [falling, partial curve]"
same,AC50,[1]; measured here: RFP channel,"7.94 µM [falling, partial curve]"
same,max response,[2]; [9],-75.2%
same,AC50,[2]; [10],"17.8 µM [falling, full curve, poor fit]"
same,AC50,[2]; [11],"20 µM [falling, full curve, poor fit]"
same,max response,[2]; [12],-80%
same,AC50,[4]; [13],"15.1 µM [falling, full curve]"
same,AC50,[4]; [16],"10.7 µM [falling, full curve]"
NCCCCNCCCN,AC50,[1]; measured here: GFP channel,"35.5 µM [falling, single point]"
same,AC50,[1]; measured here: RFP channel,"35.5 µM [falling, single point]"
same,max response,[2]; [9],-11.7% and -3%
same,AC50,[2]; [10],"0.00251 µM [falling, full curve, poor fit]"
same,AC50,[2]; [11],"0.00224 µM [falling, full curve, poor fit]"
same,max response,[2]; [12],-7.83% and -2.1%
same,AC50,[4]; [13],"95.3 µM [falling, single point]"
same,AC50,[4]; [16],"15.1 µM [rising, partial curve]"
same,AC50,[6]; measured here: PEO4 viability,"24.5 µM [falling, single point]"
same,z-score,[7]; [17],0.25
same,z-score,[7]; [18],0.207
same,z-score,[7]; [19],0.569
CC(C)(C)c1ccc(S(=O)(=O)/C=C/C#N)cc1,AC50,[1]; measured here: GFP channel,"7.94 µM [falling, partial curve]"
same,AC50,[1]; measured here: RFP channel,"11.2 µM [falling, partial curve]"
same,max response,[2]; [9],-80.5%
same,AC50,[2]; [10],"14.1 µM [falling, full curve, poor fit]"
same,AC50,[2]; [11],"14.1 µM [falling, full curve, poor fit]"
same,max response,[2]; [12],-111%
same,AC50,[4]; [13],"7.57 µM [falling, full curve]"
same,AC50,[4]; [16],"8.49 µM [falling, full curve]"
same,AC50,[5]; [14],"3.66 µM [falling, single point]"
same,AC50,[5]; [15],"7.31 µM [falling, partial curve]"
N#CC(Cc1ccc(O)c(O)c1)C(=O)N1CCc2ccccc21 (centres undefined),AC50,[1]; measured here: GFP channel,"3.55 µM [falling, partial curve]"
same,AC50,[1]; measured here: RFP channel,"3.55 µM [falling, partial curve]"
same,max response,[2]; [9],-72.6%
same,AC50,[2]; [10],"12.6 µM [falling, partial curve, poor fit]"
same,AC50,[2]; [11],"15.8 µM [falling, partial curve]"
same,max response,[2]; [12],-100%
same,AC50,[4]; [16],"26.9 µM [falling, full curve]"
O=c1ccc2c(OCCCCc3ccccc3)c3ccoc3cc2o1,AC50,[8],"12.6 µM [rising, partial curve]"
same,AC50,[1]; measured here: GFP channel,"11.2 µM [rising, single point]"
same,AC50,[1]; measured here: RFP channel,"11.2 µM [rising, single point]"
same,max response,[2]; [9],56.4%
same,AC50,[2]; [10],"39.8 µM [rising, partial curve, poor fit]"
same,AC50,[2]; [11],"39.8 µM [rising, partial curve, poor fit]"
same,max response,[2]; [12],58.6%
same,AC50,[5]; [15],"11.6 µM [rising, partial curve]"
O=Nc1c(-c2c(O)[nH]c3cc(Br)ccc23)[nH]c2ccccc12,AC50,[1]; measured here: GFP channel,"3.55 µM [rising, partial curve]"
same,AC50,[1]; measured here: RFP channel,"22.4 µM [falling, partial curve]"
same,max response,[2]; [9],-53.9%
same,AC50,[2]; [11],"22.4 µM [falling, full curve, poor fit]"
same,max response,[2]; [12],-87.7%
same,AC50,[4]; [13],"21.3 µM [falling, full curve]"
same,AC50,[4]; [16],"16.9 µM [falling, full curve]"
same,AC50,[5]; [14],"4.61 µM [falling, partial curve]"
same,AC50,[5]; [15],"6.51 µM [falling, partial curve]"
same,AC50,[3],"20.6 µM [falling, partial curve]"
same,viability change,[3],-67.4%
same,AC50,[6]; measured here: PEO1 parental viability,"9.77 µM [falling, partial curve]"
same,AC50,[6]; measured here: PEO4 viability,"8.71 µM [falling, partial curve]"
same,z-score,[7]; [17],-0.588
same,z-score,[7]; [18],-0.737
same,AC50,"[7]; TFE3-RCC viability, measured here: UOK124 cell viability","18.7 µM [falling, partial curve]"
same,z-score,[7]; [19],-0.88
same,AC50,"[7]; TFE3-RCC viability, measured here: UOK145 cell viability","14.8 µM [falling, partial curve]"

# Reformatted tab-delimited: part of the list above
smiles	measurement	setting	value
CC[C@@H](C)[C@H]1O[C@]2(CC[C@@H]1C)C[C@@H]1C[C@@H](C/C=C(\C)[C@@H](O[C@H]3C[C@H](OC)[C@@H](O[C@H]4C[C@H](OC)[C@@H](O)[C@H](C)O4)[C@H](C)O3)[C@@H](C)/C=C/C=C3\CO[C@@H]4[C@H](O)C(C)=C[C@@H](C(=O)O1)[C@]34O)O2	AC50	[4]; [13]	15.1 µM [falling, full curve]
same	AC50	[4]; [16]	10.7 µM [falling, full curve]
NCCCCNCCCN	AC50	[1]; measured here: GFP channel	35.5 µM [falling, single point]
